In article doi:10.1101/2025.09.10.675342 one finds binding data, which are given here for two molecules.

Sequences of proteins named here, by UniProt entry; tags and fusion partners are left off. Residues count along the entry.
UniProt P11835, residues 24-771: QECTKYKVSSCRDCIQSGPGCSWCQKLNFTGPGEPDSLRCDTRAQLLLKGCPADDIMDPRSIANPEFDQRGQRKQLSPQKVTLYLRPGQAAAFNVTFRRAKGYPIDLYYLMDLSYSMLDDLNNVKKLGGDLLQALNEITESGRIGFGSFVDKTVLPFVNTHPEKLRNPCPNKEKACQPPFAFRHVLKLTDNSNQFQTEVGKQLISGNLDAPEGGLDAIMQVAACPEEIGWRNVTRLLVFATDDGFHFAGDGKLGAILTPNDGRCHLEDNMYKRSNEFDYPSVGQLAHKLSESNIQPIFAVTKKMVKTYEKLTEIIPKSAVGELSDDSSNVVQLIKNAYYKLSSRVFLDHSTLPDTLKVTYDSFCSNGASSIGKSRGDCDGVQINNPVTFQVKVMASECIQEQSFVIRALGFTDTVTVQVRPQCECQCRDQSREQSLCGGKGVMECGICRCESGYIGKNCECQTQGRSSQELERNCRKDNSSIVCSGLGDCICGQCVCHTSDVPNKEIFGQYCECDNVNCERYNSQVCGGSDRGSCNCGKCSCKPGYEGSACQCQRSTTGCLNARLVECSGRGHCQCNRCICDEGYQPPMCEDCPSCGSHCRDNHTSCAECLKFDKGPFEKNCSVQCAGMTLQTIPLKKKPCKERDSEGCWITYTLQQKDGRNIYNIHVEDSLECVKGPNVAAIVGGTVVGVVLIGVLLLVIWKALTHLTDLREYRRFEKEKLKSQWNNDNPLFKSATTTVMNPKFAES

The target of this assay is T1, SIRPα (endogenous, mouse BMDMs) (mouse (endogenous in BMDMs)) (UniProt P97797).
T1 sequence: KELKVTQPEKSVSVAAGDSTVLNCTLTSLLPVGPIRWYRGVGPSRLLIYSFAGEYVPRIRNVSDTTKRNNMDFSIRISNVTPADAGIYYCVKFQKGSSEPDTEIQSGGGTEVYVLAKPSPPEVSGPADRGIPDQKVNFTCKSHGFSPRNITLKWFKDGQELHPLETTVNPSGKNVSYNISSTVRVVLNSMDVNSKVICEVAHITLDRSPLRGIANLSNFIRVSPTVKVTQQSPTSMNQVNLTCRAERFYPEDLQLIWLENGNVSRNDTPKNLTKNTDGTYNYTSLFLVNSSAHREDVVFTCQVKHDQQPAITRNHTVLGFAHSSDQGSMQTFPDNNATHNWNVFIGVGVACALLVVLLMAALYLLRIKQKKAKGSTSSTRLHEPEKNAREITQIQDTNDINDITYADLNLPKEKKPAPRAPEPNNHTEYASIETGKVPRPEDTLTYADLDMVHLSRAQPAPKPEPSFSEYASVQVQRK
Briefly: affinity purification with mass spectrometry.

These are yes or no findings as the source states them, for the method shown. Binding seen in cells or lysates may run through a third protein. These calls come from enrichment with a bait or labelling near it, and not all partners need be listed.

For “CD18 (β2 integrin) (endogenous, mouse BMDMs) (from UniProt P11835 24-771) (receptor)”, the binding entry is “binds”.

B1: CD45 (endogenous, mouse BMDMs) (protein, UniProt P06800 26-1293)
chain: QTPTPSDELSTTENALLLPQSDPLPARTTESTPPSISERGNGSSETTYHPGVLSTLLPHLSPQPDSQTPSAGGADTQTFSSQADNPTLTPAPGGGTDPPGVPGERTVPGTIPADTAFPVDTPSLARNSSAASPTHTSNVSTTDISSGASLTTLTPSTLGLASTDPPSTTIATTTKQTCAAMFGNITVNYTYESSNQTFKADLKDVQNAKCGNEDCENVLNNLEECSQIKNISVSNDSCAPATTIDLYVPPGTDKFSLHDCTPKEKANTSICLEWKTKNLDFRKCNSDNISYVLHCEPENNTKCIRRNTFIPERCQLDNLRAQTNYTCVAEILYRGVKLVKNVINVQTDLGIPETPKPSCGDPAARKTLVSWPEPVSKPESASKPHGYVLCYKNNSEKCKSLPNNVTSFEVESLKPYKYYEVSLLAYVNGKIQRNGTAEKCNFHTKADRPDKVNGMKTSRPTDNSINVTCGPPYETNGPKTFYILVVRSGGSFVTKYNKTNCQFYVDNLYYSTDYEFLVSFHNGVYEGDSVIRNESTNFNAKALIIFLVFLIIVTSIALLVVLYKIYDLRKKRSSNLDEQQELVERDDEKQLMDVEPIHSDILLETYKRKIADEGRLFLAEFQSIPRVFSKFPIKDARKPHNQNKNRYVDILPYDYNRVELSEINGDAGSTYINASYIDGFKEPRKYIAAQGPRDETVDDFWRMIWEQKATVIVMVTRCEEGNRNKCAEYWPSMEEGTRAFKDIVVTINDHKRCPDYIIQKLNVAHKKEKATGREVTHIQFTSWPDHGVPEDPHLLLKLRRRVNAFSNFFSGPIVVHCSAGVGRTGTYIGIDAMLEGLEAEGKVDVYGYVVKLRRQRCLMVQVEAQYILIHQALVEYNQFGETEVNLSELHSCLHNMKKRDPPSDPSPLEAEYQRLPSYRSWRTQHIGNQEENKKKNRNSNVVPYDFNRVPLKHELEMSKESEPESDESSDDDSDSEETSKYINASFVMSYWKPEMMIAAQGPLKETIGDFWQMIFQRKVKVIVMLTELVNGDQEVCAQYWGEGKQTYGDMEVEMKDTNRASAYTLRTFELRHSKRKEPRTVYQYQCTTWKGEELPAEPKDLVSMIQDLKQKLPKASPEGMKYHKHASILVHCRDGSQQTGLFCALFNLLESAETEDVVDVFQVVKSLRKARPGVVCSYEQYQFLYDIIASIYPAQNGQVKKTNSQDKIEFHNEVDGGKQDANCVRPDGPLNKAQEDSRGVGTPEPTNSAEEPEHAANGSASPAPTQSS
As for B1, the binding result is given as “binds”.
